This note sets out measurements from article PMC6273473 (Molecules, 2016).

What is called Papp B→A is how fast a substance crosses the layer from the basolateral side.

This series concerns P-gp (MDR1). The experiment in a line: in vitro. Conditions: dog, MDCK-MDR1, pH 7.4.

`CN1C(=O)CN=C(c2ccccc2)c2cc(Cl)ccc21` [diazepam, reference compound] gave a Papp B→A at 120 min, 75 µM of 12.3 ×10⁻⁶ cm/s.
